The text below walks through data of patent publication US20190316211A1, “ONCOGENIC ALTERNATIVE SPLICING SWITCH OF PACE4 IN CANCER” (SOCIETE DE COMMERCIALISATION DES PRODUITS DE LA RECHERCHE …, priority 2016, published 2019).

Results are given in words; binding and its absence hold for the method and conditions named. Binding can be weak; no strength is given. Tags and fused reporters may be left off the sequences shown.

The target in this assay is Vps13. The assay can be described thus: V5 immunoprecipitation from HEK293-FT lysates, SWATH-MS.

B1: V5-tagged PACE4-FL (enzyme, not shown: small tags and cut ends)
chain: QVRSDPQALYFNDPIWSNMWYLHCGDKNSRCRSEMNVQAAWKRGYTGKNVVVTILDDGIERNHPDLAPNYDSYASYDVNGNDYDPSPRYDASNENKHGTRCAGEVAASANNSYCIVGIAYNAKIGGIRMLDGDVTDVVEAKSLGIRPNYIDIYSASWGPDDDGKTVDGPGRLAKQAFEYGIKKGRQGLGSIFVWASGNGGREGDYCSCDGYTNSIYTISVSSATENGYKPWYLEECASTLATTYSSGAFYERKIVTTDLRQRCTDGHTGTSVSAPMVAGIIALALEANSQLTWRDVQHLLVKTSRPAHLKASDWKVNGAGHKVSHFYGFGLVDAEALVVEAKKWTAVPSQHMCVAASDKRPRSIPLVQVLRTTALTSACAEHSDQRVVYLEHVVVRTSISHPRRGDLQIYLVSPSGTKSQLLAKRLLDLSNEGFTNWEFMTVHCWGEKAEGQWTLEIQDLPSQVRNPEKQGKLKEWSLILYGTAEHPYHTFSAHQSRSRMLELSAPELEPPKAALSPSQVEVPEDEEDYTAQSTPGSANILQTSVCHPECGDKGCDGPNADQCLNCVHFSLGSVKTSRKCVSVCPLGYFGDTAARRCRRCHKGCETCSSRAATQCLSCRRGFYHHQEMNTCVTLCPAGFYADESQKNCLKCHPSCKKCVDEPEKCTVCKEGFSLARGSCIPDCEPGTYFDSELIRCGECHHTCGTCVGPGREECIHCAKNFHFHDWKCVPACGEGFYPEEMPGLPHKVCRRCDENCLSCAGSSRNCSRCKTGFTQLGTSCITNHTCSNADETFCEMVKSNRLCERKLFIQFCCRTCLLAG
With B1, the binding entry is listed as “binds”.
